From paper PMC11022886
These are yes or no findings as the source states them, for the method shown. Binding seen in cells or lysates may run through a third protein. Here binding means that the protein was enriched with, or labelled near, the bait; the list need not be complete. Sequences can lack the tags named with a protein.

Chains of the proteins cited; added tags and fusions are not shown.
UniProt Q9Z2U1: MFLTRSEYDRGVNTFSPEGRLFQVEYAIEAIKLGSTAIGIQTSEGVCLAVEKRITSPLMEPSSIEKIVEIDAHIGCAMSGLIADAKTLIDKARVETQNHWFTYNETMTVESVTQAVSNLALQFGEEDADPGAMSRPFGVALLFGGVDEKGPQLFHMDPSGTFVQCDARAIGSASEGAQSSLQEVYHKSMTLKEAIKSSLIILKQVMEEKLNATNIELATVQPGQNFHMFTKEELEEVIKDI
UniProt Q9QUM9: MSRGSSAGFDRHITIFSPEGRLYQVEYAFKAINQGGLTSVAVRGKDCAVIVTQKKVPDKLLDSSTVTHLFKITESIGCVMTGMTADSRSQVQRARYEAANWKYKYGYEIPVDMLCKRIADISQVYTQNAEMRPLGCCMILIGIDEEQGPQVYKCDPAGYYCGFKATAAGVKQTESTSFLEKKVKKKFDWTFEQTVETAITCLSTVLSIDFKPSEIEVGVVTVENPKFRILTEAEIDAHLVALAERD
UniProt Q9R1P4: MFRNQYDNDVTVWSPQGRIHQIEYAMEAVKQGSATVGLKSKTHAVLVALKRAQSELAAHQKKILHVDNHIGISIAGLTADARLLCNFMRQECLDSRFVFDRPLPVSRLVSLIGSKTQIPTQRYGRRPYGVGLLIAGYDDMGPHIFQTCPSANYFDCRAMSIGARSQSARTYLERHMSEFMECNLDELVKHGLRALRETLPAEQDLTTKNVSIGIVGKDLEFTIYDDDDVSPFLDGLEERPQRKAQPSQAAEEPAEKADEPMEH

T1: endogenous 3x-FLAG tagged MIDN (midnolin) (mouse (endogenous in splenic B cells and splenocytes)) (UniProt Q3TPJ7)
T1 sequence: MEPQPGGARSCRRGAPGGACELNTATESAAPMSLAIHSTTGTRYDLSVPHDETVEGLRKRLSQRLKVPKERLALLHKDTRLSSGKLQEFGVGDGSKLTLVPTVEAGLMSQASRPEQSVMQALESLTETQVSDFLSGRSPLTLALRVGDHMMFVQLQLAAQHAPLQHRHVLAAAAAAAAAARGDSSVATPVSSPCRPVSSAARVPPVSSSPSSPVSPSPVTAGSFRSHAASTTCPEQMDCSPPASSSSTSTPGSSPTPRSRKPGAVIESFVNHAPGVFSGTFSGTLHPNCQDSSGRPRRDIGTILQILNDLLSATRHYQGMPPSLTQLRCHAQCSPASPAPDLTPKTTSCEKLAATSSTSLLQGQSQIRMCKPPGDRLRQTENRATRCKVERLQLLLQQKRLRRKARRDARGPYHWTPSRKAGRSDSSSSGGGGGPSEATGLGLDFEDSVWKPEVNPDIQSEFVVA

B1: PSMD6 (19S subunit), endogenous (protein, UniProt Q99JI4 1-389)
chain: MPLENLEEEGLPKNPDLRIAQLRFLLSLPEHRGDAAVREELMAAVRENNMAPYYEALCKSLDWQMDVDLLSKMKKANEEELKRLDEELEDAEKNLGESEIRDAMMAKAEYLCQIGDKEGALTAFRKTYDKTVALGHRLDIVFYLLRIGLFYMDNDLITRNTEKAKSLIEEGGDWDRRNRLKVYQGLYCVAIRDFKQAAELFLDTVSTFTSYELMDYKTFVTYTVYVSMIALERPDLREKVIKGAEILEVLHSLPAVRQYLFSLYECRYSVFFQSLAIVEQEMKKDWLFAPHYRYYVREMRIHAYSQLLESYRSLTLGYMAEAFGVGVDFIDQELSRFIAAGRLHCKIDKVNEIVETNRPDSKNWQYQETIKKGDLLLNRVQKLSRVINM
B2: PSMD12 (19S subunit), endogenous (protein, UniProt Q9D8W5 1-456)
chain: MADGGSERADGRIVKMEVDYSATVDQRLPECEKLAKEGRLQEVIETLLSLEKQTRTASDMVSTSRILVAVVKMCYEAKEWDLLNENIMLLSKRRSQLKQAVAKMVQQCCTYVEEITDLPVKLRLIDTLRMVTEGKIYVEIERARLTKTLATIKEQNGDVKEAASILQELQVETYGSMEKKERVEFILEQMRLCLAVKDYIRTQIISKKINTKFFQEENTENLKLKYYNLMIQLDQHEGSYLSICKHYRAIYDTPCIQAESDKWQQALKSVVLYVILAPFDNEQSDLVHRISSDKKLEEIPKYKDLLKLFTTMELMRWSTLVEDYGVELRKGSSETPATDVFSSTEEGEKRWKDLKSRVVEHNIRIMAKYYTRITMKRMAQLLDLSVDESEAFLSNLVVNKTIFAKVDRLAGVINFQRPKDPNNLLNDWSQKLNSLMSLVNKTTHLIAKEEMIHNLQ
B3: PSMD7 (19S subunit), endogenous (protein, UniProt P26516 1-321)
chain: MPELAVQKVVVHPLVLLSVVDHFNRIGKVGNQKRVVGVLLGSWQKKVLDVSNSFAVPFDEDDKDDSVWFLDHDYLENMYGMFKKVNARERIVGWYHTGPKLHKNDIAINELMKRYCPNSVLVIIDVKPKDLGLPTEAYISVEEVHDDGTPTSKTFEHVTSEIGAEEAEEVGVEHLLRDIKDTTVGTLSQRITNQVHGLKGLNSKLLDIRSYLEKVASGKLPINHQIIYQLQDVFNLLPDASLQEFVKAFYLKTNDQMVVVYLASLIRSVVALHNLINNKIANRDAEKKEGQEKEESKKERKDDKEKEKSDAAKKEEKKEKK

The molecules below were run against T1, endogenous 3x-FLAG tagged MIDN (midnolin) (mouse (endogenous in splenic B cells and splenocytes)) (assay: affinity purification with mass spectrometry; endogenous MIDN-3xFLAG precipitated with anti-FLAG M2 agarose beads (4 h, 4°C) from NP-40 lysates of splenic B cells or whole spleen of Midn^Flag/Flag mice, eluted with 3xFlag peptides, LC-MS/MS; WT mice without the tag as control; two experiments (B cells, spleen)).

binding	Molecule
binds	PSMA5 (20S subunit), endogenous (from UniProt Q9Z2U1 1-241)
binds	PSMA6 (20S subunit), endogenous (from UniProt Q9QUM9 1-246)
binds	PSMA1 (20S subunit), endogenous (from UniProt Q9R1P4 1-263)
binds	B1
binds	B2
binds	B3
